Measurements: PubChem BioAssay AID330 (DTP/NCI, 2004)
The list does not hold the whole screen: it is rich in T/C values a quarter to a half above the control, in often repeated tests (any T/C) and in doses without a T/C. Other doses and runs of a compound stand elsewhere. T/C: endpoint of the treated group in % of that of the vehicle group. Some entries give survivors of the animals treated and no T/C: the source holds a T/C of zero for them, seemingly a mark for toxic or unscored doses. Some survivor counts are full or nearly so, which does not show that the dose was tolerated: the source hardly ever lists a survival T/C far under the control, and the zero likely stands for such cases as well. Counts of survivors are from the toxicity check (mostly the fifth day) where no day follows; animals may have died later. Schedule codes are those of the source, read here as Q, the interval in days (D) or hours (H), X, the number of doses. Additions like (4×) say how often a value occurs here. Some doses were run more than once; their values stand side by side, smallest first. Where survival is the endpoint, the PubChem record calls one and a half times the control and up active, and a quarter to a half above the control has no call in these data; cut-offs in other NCI protocols can differ. Some T/C values are followed by the survivors on the day toxicity was checked, most often the fifth; without a count, all were alive then.

Tested on: P388 leukemia ip, CD2F1 mice, survival T/C
Assay: NCI In Vivo Anticancer Drug Screen. Data for tumor model P388 Leukemia (intraperitoneal) in CD2F1 (CDF1) mice
Conditions: T/C endpoint: median survival time, higher T/C = longer survival

## Cc1c2ccncc2c(C)c2c1[nH]c1ccccc12
dose: 50.0 mg/kg/injection, schedule: Q04DX003 (ip), vehicle: clinical formulation
  survivor count: 4 of 8
dose: 50.0 mg/kg/injection, schedule: Q04DX003 (ip), vehicle: distilled water + Tween-80, evaluated on day 30
  T/C: 88, 139, 153, 160 (2×), 163, 166, 169, 175, 176, 177, 178, 180, 181, 184, 186, 187, 198, 203, 214, 215, 222 % of control
dose: 50.0 mg/kg/injection, schedule: Q04DX003 (ip), vehicle: distilled water + Tween-80, evaluated on day 35
  T/C: 164 % of control
dose: 50.0 mg/kg/injection, schedule: Q04DX003 (ip), vehicle: distilled water + Tween-80, evaluated on day 45
  T/C: 177 % of control
dose: 50.0 mg/kg/injection, schedule: Q04DX003 (ip), vehicle: distilled water + Tween-80, evaluated on day 60
  T/C: 144 % of control
dose: 50.0 mg/kg/injection, schedule: Q04DX003 (ip), vehicle: saline with Tween-80
  T/C: 158, 183, 189, 190, 236 % of control
dose: 50.0 mg/kg/injection, schedule: Q04DX003 (ip), vehicle: saline
  T/C: 147, 166, 169, 192, 203 % of control
dose: 60.0 mg/kg/injection, schedule: Q04DX003 (ip), vehicle: saline with Tween-80
  T/C: 204, 213, 215, 260 % of control
dose: 64.0 mg/kg/injection, schedule: Q01DX005 (ip), vehicle: saline with Tween-80
  survivor count: 6 of 6
dose: 64.0 mg/kg/injection, schedule: Q01DX005 (iv), vehicle: saline with Tween-80
  survivor count: 0 of 6
dose: 64.0 mg/kg/injection, schedule: Q01DX005 (oral), vehicle: saline with Tween-80
  survivor count: 6 of 6
dose: 80.0 mg/kg/injection, schedule: Q01DX005 (ip), vehicle: saline with Tween-80
  survivor count: 6 of 6
dose: 80.0 mg/kg/injection, schedule: Q01DX005 (iv), vehicle: saline with Tween-80
  survivor count: 0 of 6
dose: 80.0 mg/kg/injection, schedule: Q04DX003 (ip), vehicle: water
  survivor count: 3 of 6 and 5 of 6
dose: 100.0 mg/kg/injection, schedule: Q01DX009 (ip), vehicle: saline with Tween-80
  survivor count: 6 of 6
dose: 100.0 mg/kg/injection, schedule: Q04DX002 (ip), vehicle: distilled water + Tween-80, evaluated on day 30
  T/C: 179, 183, 185, 186, 187, 188, 189, 190, 204, 213 % of control
dose: 100.0 mg/kg/injection, schedule: Q04DX002 (ip), vehicle: distilled water + Tween-80, evaluated on day 35
  T/C: 171 % of control
dose: 100.0 mg/kg/injection, schedule: Q04DX002 (ip), vehicle: saline with Tween-80, evaluated on day 30
  T/C: 130, 161, 182, 190, 209 % of control
dose: 100.0 mg/kg/injection, schedule: Q04DX002 (ip), vehicle: saline with Tween-80, evaluated on day 45
  T/C: 188 % of control
dose: 100.0 mg/kg/injection, schedule: Q04DX003 (ip), vehicle: clinical formulation
  survivor count: 4 of 6 and 5 of 6
dose: 100.0 mg/kg/injection, schedule: Q04DX003 (ip), vehicle: distilled water + Tween-80, evaluated on day 30
  T/C: 99, 105, 113, 118 (2×), 119, 121 [5 of 6 alive], 129, 130, 132, 133, 142, 145 (2×), 169, 181, 190, 205, 207, 209, 274 % of control
dose: 100.0 mg/kg/injection, schedule: Q04DX003 (ip), vehicle: distilled water + Tween-80, evaluated on day 35
  T/C: 212 % of control
dose: 100.0 mg/kg/injection, schedule: Q04DX003 (ip), vehicle: distilled water + Tween-80, evaluated on day 45
  T/C: 168 % of control
dose: 100.0 mg/kg/injection, schedule: Q04DX003 (ip), vehicle: distilled water + Tween-80, evaluated on day 60
  T/C: 124 % of control
dose: 100.0 mg/kg/injection, schedule: Q04DX003 (ip), vehicle: distilled water + Tween-80
  survivor count: 6 of 6
dose: 100.0 mg/kg/injection, schedule: Q04DX003 (ip), vehicle: saline with Tween-80, evaluated on day 30
  T/C: 100, 109, 139, 186, 200 % of control
dose: 100.0 mg/kg/injection, schedule: Q04DX003 (ip), vehicle: saline with Tween-80, evaluated on day 45
  T/C: 123, 132, 242 % of control
dose: 100.0 mg/kg/injection, schedule: Q04DX003 (ip), vehicle: saline
  T/C: 161, 183, 198, 223, 288 % of control
dose: 100.0 mg/kg/injection, schedule: Q04DX003 (ip), vehicle: water
  T/C: 130 % of control
dose: 128.0 mg/kg/injection, schedule: Q01DX005 (ip), vehicle: saline with Tween-80
  survivor count: 6 of 6
dose: 128.0 mg/kg/injection, schedule: Q01DX005 (iv), vehicle: saline with Tween-80
  survivor count: 0 of 6
dose: 128.0 mg/kg/injection, schedule: Q01DX005 (oral), vehicle: saline with Tween-80
  survivor count: 6 of 6
dose: 200.0 mg/kg/injection, schedule: Q04DX002 (ip), vehicle: distilled water + Tween-80, evaluated on day 30
  T/C: 100, 102, 107 [5 of 6 alive], 115, 120, 134, 140, 208 % of control
dose: 200.0 mg/kg/injection, schedule: Q04DX002 (ip), vehicle: distilled water + Tween-80, evaluated on day 35
  T/C: 90 % of control [5 of 6 alive]
dose: 200.0 mg/kg/injection, schedule: Q04DX002 (ip), vehicle: distilled water + Tween-80
  survivor count: 5 of 6 and 6 of 6
dose: 200.0 mg/kg/injection, schedule: Q04DX002 (ip), vehicle: saline with Tween-80, evaluated on day 30
  T/C: 90, 205 [5 of 6 alive], 219, 228 % of control [5 of 6 alive]
dose: 200.0 mg/kg/injection, schedule: Q04DX002 (ip), vehicle: saline with Tween-80, evaluated on day 45
  T/C: 98, 150, 172, 255 % of control
dose: 200.0 mg/kg/injection, schedule: Q04DX003 (ip), vehicle: distilled water + Tween-80, evaluated on day 30
  T/C: 88, 89 (3×), 90, 93, 93 [5 of 6 alive], 94 (2×), 95, 105, 106, 112, 130 % of control [5 of 6 alive]
dose: 200.0 mg/kg/injection, schedule: Q04DX003 (ip), vehicle: distilled water + Tween-80, evaluated on day 35
  T/C: 101 % of control
dose: 200.0 mg/kg/injection, schedule: Q04DX003 (ip), vehicle: distilled water + Tween-80, evaluated on day 60
  T/C: 102 % of control
dose: 200.0 mg/kg/injection, schedule: Q04DX003 (ip), vehicle: distilled water + Tween-80
  survivor count: 6 of 6 (3×)
dose: 200.0 mg/kg/injection, schedule: Q04DX003 (ip), vehicle: saline with Tween-80
  T/C: 86, 91, 99, 109, 247 % of control
dose: 200.0 mg/kg/injection, schedule: Q04DX003 (ip), vehicle: saline
  T/C: 113, 114, 150, 212, 238 % of control
dose: 200.0 mg/kg/injection, schedule: Q04DX003 (ip), vehicle: water
  T/C: 125 % of control
dose: 256.0 mg/kg/injection, schedule: Q01DX005 (oral), vehicle: saline with Tween-80
  survivor count: 6 of 6
